From PubChem BioAssay AID504648 (National Center for Advancing Translational Sciences (NCATS), 2011)
In all, about 390,000 compounds went through this assay and about 610 (0.16%) were called active. Inconclusive means that the source gave no clear call. Such entries were picked first, then a sample of the others. The call rests on the fitted dose curve; in most records, active means well fitted inhibition curve with a large enough effect; inconclusive means small, poorly fitted or top-dose-only effect, or effect the other way, or another doubt; inactive means no such curve, though single readings can be large or run the other way. A potency beside an inconclusive call is a rough fit, not a confirmed value. Some structures have more than one record in an assay (separate samples or runs), and their calls can disagree.

Experiment: Nrf2 qHTS screen for inhibitors: counterscreen for cytotoxicity
Conditions: A549 ARE-Fluc cells, CellTiter-Fluor viability, 18-24 h; series mostly up to 46 µM
Summary of the method: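 Cytotoxicity counterscreen: CellTiter-Fluor fluorescence was measured in A549 ARE_Fluc cells after 18-24 h of compound exposure in a concentration series. The subsequent BugLite luminescent read reports ARE-luciferase activity.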
Potency means the concentration at half of the fitted maximal effect.

Structure (SMILES)	Potency
O=[N+]([O-])c1ccc(N2CCN(Cc3cccc([N+](=O)[O-])c3)CC2)cc1	inconclusive: 20.6 µM [falling, single point]
COc1ccc(C(NCC(=O)NC(C)c2ccc(Cl)cc2)c2ccccc2)cc1 (stereo not drawn)	inconclusive: 23.1 µM [falling, single point]
Cc1cccc(N2C(=O)c3cccc4c(N)ccc(c34)C2=O)c1	inconclusive: 13 µM [activator, partial curve]
CCCCN(CCCC)C(=O)c1sc2nc(N3CCOCC3)c3c(c2c1N)CCCC3	inconclusive: 6.51 µM [activator, full curve, poor fit]
C[C@@H](C(=O)NCCc1ccccc1F)N1C(=O)N2CCc3c([nH]c4ccccc34)[C@@]2(C)C1=O	inactive
CCCc1ccc(OCC(=O)NNC(=S)NC(=O)c2ccco2)cc1	inconclusive: 29.1 µM [falling, partial curve, poor fit]
Cc1ccccc1C(=O)Nc1ccc2c(C#N)c3nc4ccccc4nc3n2c1	inconclusive: 25.9 µM [falling, partial curve, poor fit]
Cc1cccc(N=C2NC(=O)/C(=C/c3cn(C)c4ccccc34)S2)c1	inconclusive: 16.4 µM [falling, single point]
COc1ccc2c(c1)sc1ncc(C(=O)NCc3cccc(Cl)c3)c(=O)n12	inactive
COc1ccccc1C(=O)NC(=S)/C=C1/N(C)c2ccccc2C1(C)C	inconclusive: 20.6 µM [falling, single point]
Cc1ccc2scc(N3CCN(c4ccc(F)cc4)CC3)c(=O)c2c1	inconclusive: 8.2 µM [falling, partial curve, poor fit]
O=C(CN1C(=O)/C(=C\c2cccc(Br)c2)Oc2ccccc21)NCCCN1CCOCC1	inconclusive: 25.9 µM [falling, single point]
O=C(NNc1ccccc1)Nc1ccccc1F	inactive
Cc1cc[n+](CCC(=O)O)c2ccccc12	inactive
O=C1NC[C@H](Cc2ccccc2)N(C[C@H]2CCCN2C[C@H](Cc2ccccc2)N2C[C@H](Cc3ccccc3)N(CCc3ccccc3)C(=O)C2=O)C1=O	inconclusive: 29.1 µM [falling, single point]
Cc1cc(=O)oc2c(CN3CCCCC3)c(O)ccc12	inactive
COc1ccc(N2CCC(CNC(=S)Nc3ccc(C)cc3C)C2)cc1 (stereo not drawn)	inconclusive: 9.2 µM [activator, partial curve, poor fit]
CC1(C)CC(NCCN2CCN(C3=CC(=C(C#N)C#N)CC(C)(C)C3)CC2)=CC(=C(C#N)C#N)C1	inconclusive: 8.2 µM [falling, partial curve, poor fit]
O=[N+]([O-])c1cc(-n2cnnn2)ccc1N1CCC(Cc2ccccc2)CC1	inconclusive: 4.61 µM [falling, single point]
O=C(NCc1ccccc1)c1c(Cl)nc(Cl)c(Cl)c1Cl	inactive
Cc1cc(C)c(NC(=O)c2cc(S(=O)(=O)N3CCN(c4ccccc4F)CC3)ccc2F)c(C)c1	inactive
CCCCc1ccc(NC(=O)OC)cc1	inactive

Structure (SMILES)	Potency
CCOCCCn1c(=N)c(C(N)=S)cc2c(=O)n3cccc(C)c3nc21	inconclusive: 13 µM [activator, partial curve, poor fit]
CSc1nc2c(c(=O)[nH]1)C(c1cccs1)C1=C(CCCC1=O)N2 (stereo not drawn)	inactive
Cc1ccc(NC(=O)CSc2nnc(-c3ccncc3)s2)cc1	inactive
Cc1nn(-c2ccc3nnc(C)n3n2)c(C)c1CCC(=O)Nc1ccc(OC(F)(F)F)cc1	inactive
O=C(O)/C=C/C(=O)c1ccc2c(c1)CCc1ccccc1-2	inconclusive: 29.1 µM [falling, single point]
CS(=O)(=O)c1nc(-c2ccc(Br)cc2)cc(-c2ccccc2)c1C#N	inconclusive: 25.9 µM [falling, single point]
CCOC(=O)c1cc(CC)sc1NC(=O)C1CC(=O)NN1Cc1ccccc1 (stereo not drawn)	inconclusive: 29.1 µM [falling, single point]
Cc1[nH][nH]c(=O)c1N=Nc1ccc(S(N)(=O)=O)cc1	inconclusive: 20.6 µM [falling, single point]
Cc1cc(C)c(C(=O)COC(=O)CN2C(=O)NC3(CCCC3)C2=O)cc1C	inconclusive: 2.91 µM [falling, partial curve, poor fit]
O=C(c1cc(-c2ccc(Cl)c(Cl)c2)on1)N1CCCCC1	inconclusive: 16.4 µM [activator, partial curve, poor fit]
O=C(C(=O)N1CCN(c2ccc([N+](=O)[O-])cc2)CC1)c1cn(CC(=O)N2CCOCC2)c2ccccc12	inconclusive: 20.6 µM [falling, partial curve, poor fit]
CN(C)CCCN=Cc1c(O)n(Cc2ccccc2)c(=O)c2ccccc12	inconclusive: 32.6 µM [activator, partial curve, poor fit]
O=C(N/N=C/c1ccc(OCc2ccc(F)cc2)cc1)c1ccccc1	inconclusive: 25.9 µM [falling, partial curve, poor fit]
CC(=O)Nc1ccc(S(=O)(=O)N2CCN=C2SCc2cccc(C)c2)cc1	inactive
COc1ccc(C(=O)N2CCC(c3nc(-c4ccc(S(=O)(=O)N5CCCC5)cc4)no3)CC2)cc1	inconclusive: 32.6 µM [falling, partial curve, poor fit]
COc1ccc(NC(=O)N2CCCC2C(=O)Nc2cccc(C)c2C)cc1 (stereo not drawn)	inactive
COc1cccc(C2c3c(ncn(-c4ccccc4)c3=N)Oc3ccc4ccccc4c32)c1 (stereo not drawn)	active: 14.6 µM
C=CCCOc1ccccc1C(N)=O	inactive
CC(OC(=O)c1ccc2ccccc2c1)C(=O)N(C)Cc1ccccc1 (stereo not drawn)	inconclusive: 32.6 µM [falling, partial curve, poor fit]
Cc1ccc(S(=O)(=O)Nc2c(C(=O)O)[nH]c3ccccc23)cc1C	inconclusive: 29.1 µM [activator, partial curve, poor fit]
COc1cccc(C(=O)NCCCn2ccnc2)c1	inconclusive: 29.1 µM [activator, single point]

Part of the list above, set out differently:

| Structure (SMILES) | Potency |
| --- | --- |
| O=C(N/N=C/c1ccc(OCc2ccc(F)cc2)cc1)c1ccccc1 | inconclusive: 25.9 µM [falling, partial curve, poor fit] |
| Cc1ccc(S(=O)(=O)Nc2c(C(=O)O)[nH]c3ccccc23)cc1C | inconclusive: 29.1 µM [activator, partial curve, poor fit] |
